# Data reported in PMC7862700.
# Protein sequences, listed by entry. Tags and fused reporters are not part of them. Lines headed by an entry give the natural chain unless they say otherwise; changes in a name come on top.
# UniProt Q9Y603: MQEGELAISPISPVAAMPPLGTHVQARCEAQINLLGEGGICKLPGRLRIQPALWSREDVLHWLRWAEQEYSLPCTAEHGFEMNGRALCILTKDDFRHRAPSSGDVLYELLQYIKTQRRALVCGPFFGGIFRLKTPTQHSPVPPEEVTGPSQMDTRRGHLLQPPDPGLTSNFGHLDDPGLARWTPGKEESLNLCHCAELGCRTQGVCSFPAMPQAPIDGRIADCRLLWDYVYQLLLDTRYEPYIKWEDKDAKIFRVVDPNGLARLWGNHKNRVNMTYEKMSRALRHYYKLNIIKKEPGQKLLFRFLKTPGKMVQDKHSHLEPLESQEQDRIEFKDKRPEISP
# UniProt P41212: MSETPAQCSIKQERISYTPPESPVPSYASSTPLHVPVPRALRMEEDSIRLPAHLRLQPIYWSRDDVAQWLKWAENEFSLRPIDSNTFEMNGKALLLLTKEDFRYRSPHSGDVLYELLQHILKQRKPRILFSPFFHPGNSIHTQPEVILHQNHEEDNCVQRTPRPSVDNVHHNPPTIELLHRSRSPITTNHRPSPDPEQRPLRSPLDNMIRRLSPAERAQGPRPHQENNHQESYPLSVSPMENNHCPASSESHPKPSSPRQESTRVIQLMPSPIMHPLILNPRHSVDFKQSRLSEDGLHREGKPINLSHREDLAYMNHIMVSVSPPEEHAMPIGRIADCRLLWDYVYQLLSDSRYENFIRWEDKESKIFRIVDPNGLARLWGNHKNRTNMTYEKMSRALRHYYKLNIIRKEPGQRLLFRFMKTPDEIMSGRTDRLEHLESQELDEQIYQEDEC
# Only a part is listed here, and it is no random draw. At the low end of the ranking, values are background and their order means little.
# Target: T1, ELF3 (UniProt P78545)
# T1 sequence: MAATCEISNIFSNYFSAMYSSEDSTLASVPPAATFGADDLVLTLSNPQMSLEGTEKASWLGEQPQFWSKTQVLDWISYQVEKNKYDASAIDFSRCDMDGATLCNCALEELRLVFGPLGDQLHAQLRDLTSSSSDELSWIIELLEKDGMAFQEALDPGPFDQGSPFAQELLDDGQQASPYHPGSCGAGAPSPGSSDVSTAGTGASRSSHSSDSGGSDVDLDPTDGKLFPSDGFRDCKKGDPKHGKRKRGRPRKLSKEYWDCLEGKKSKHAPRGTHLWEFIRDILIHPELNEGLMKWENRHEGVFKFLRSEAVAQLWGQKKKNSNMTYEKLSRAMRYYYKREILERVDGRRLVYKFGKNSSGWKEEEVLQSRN
# Test: DAPPL (digital affinity profiling via proximity ligation, sequencing)
# Details: 10 mM Tris-HCl pH 7.5, 50 mM NaCl, 1 mM DTT, 4% glycerol, room temperature, 30 min; GST-TFs on glutathione beads, 16-mer random dsDNA library, 0.1% …; high values mean tight binding; double strand, one strand shown; scale: fold enrichment (6-mer frequency, TF over GST control)
row,Sequence,binding signal
1,CCATAG,0.931
2,CCTAGG,0.969
3,AGACTC,0.831
4,ATGGGA,0.906
5,GCAGGT,0.974
6,ACCCGT,0.835
7,TCGAGA,0.711
8,AGGACC,0.898
9,AGCGAA,0.96
10,AGTTTG,0.945
11,GTTCGT,0.963
12,GATAAC,0.958
13,CATTGG,0.965
14,TAGGGC,0.942
15,GTCCGG,0.894
16,TTAGTG,0.93
17,GTGGAT,0.96
18,CGAAGA,0.776
19,GATAAG,0.857
20,GCGTTA,0.98

row,Sequence,binding signal
1,GACGTT,0.986
2,CCCAGA,0.878
3,ATCGAC,1.14
4,TGAATC,0.872
5,AGATCA,0.909
6,ATAGTG,0.853
7,GACCGA,0.765
8,GACATG,0.996
9,GCCAAC,0.898
10,CTGTGT,0.99
11,GTACAG,0.841
12,AGCATC,0.988
13,AGAGAA,0.896
14,CCGCGG,0.835
15,ACTGGG,0.742
16,GTACCA,0.985
17,CAGAAG,0.72
18,CATTAG,0.871
19,CGGACC,0.77
20,GATCTG,0.931

# Target: ETV7 (UniProt Q9Y603)
# Test: as above
# Details: 10 mM Tris-HCl pH 7.5, 50 mM NaCl, 1 mM DTT, 4% glycerol, room temperature, 30 min; GST-TFs on glutathione beads, 16-mer random dsDNA library, 0.1% …; high values mean tight binding; double strand, one strand shown; scale: fold enrichment (6-mer frequency, TF over GST control)
row,Sequence,binding signal
1,CCATAG,0.835
2,CCTAGG,0.957
3,AGACTC,0.889
4,ATGGGA,0.986
5,GCAGGT,0.879
6,ACCCGT,0.926
7,TCGAGA,0.675
8,AGGACC,0.947
9,AGCGAA,0.875
10,AGTTTG,0.9
11,GTTCGT,0.944
12,GATAAC,0.905
13,CATTGG,0.951
14,TAGGGC,1.07
15,GTCCGG,0.87
16,TTAGTG,0.958
17,GTGGAT,0.906
18,CGAAGA,0.771
19,GATAAG,0.874
20,GCGTTA,0.974

row,Sequence,binding signal
1,GACGTT,0.991
2,CCCAGA,0.877
3,ATCGAC,1.28
4,TGAATC,0.959
5,AGATCA,0.853
6,ATAGTG,0.978
7,GACCGA,0.774
8,GACATG,1.03
9,GCCAAC,0.915
10,CTGTGT,0.89
11,GTACAG,1.06
12,AGCATC,0.953
13,AGAGAA,0.857
14,CCGCGG,0.872
15,ACTGGG,0.929
16,GTACCA,0.894
17,CAGAAG,0.788
18,CATTAG,0.981
19,CGGACC,0.766
20,GATCTG,0.901

# Target: ETV6 (UniProt P41212)
# Test: as above
# Details: 10 mM Tris-HCl pH 7.5, 50 mM NaCl, 1 mM DTT, 4% glycerol, room temperature, 30 min; GST-TFs on glutathione beads, 16-mer random dsDNA library, 0.1% …; high values mean tight binding; double strand, one strand shown; scale: fold enrichment (6-mer frequency, TF over GST control)
row,Sequence,binding signal
1,CCATAG,0.933
2,CCTAGG,0.931
3,AGACTC,0.85
4,ATGGGA,0.962
5,GCAGGT,0.87
6,ACCCGT,0.865
7,TCGAGA,0.65
8,AGGACC,1.02
9,AGCGAA,0.886
10,AGTTTG,0.966
11,GTTCGT,0.99
12,GATAAC,0.843
13,CATTGG,0.925
14,TAGGGC,0.987
15,GTCCGG,0.979
16,TTAGTG,0.917
17,GTGGAT,0.959
18,CGAAGA,0.788
19,GATAAG,0.887
20,GCGTTA,0.886

row,Sequence,binding signal
1,GACGTT,0.944
2,CCCAGA,0.873
3,ATCGAC,1.21
4,TGAATC,1.01
5,AGATCA,0.854
6,ATAGTG,0.891
7,GACCGA,0.851
8,GACATG,0.995
9,GCCAAC,0.898
10,CTGTGT,0.836
11,GTACAG,0.985
12,AGCATC,1.03
13,AGAGAA,0.828
14,CCGCGG,0.923
15,ACTGGG,0.849
16,GTACCA,0.992
17,CAGAAG,0.721
18,CATTAG,0.966
19,CGGACC,0.817
20,GATCTG,0.879
